Paper PMC7948500, “Comparative interactomes of HSF1 in stress and disease reveal a role for CTCF in HSF1-mediated gene regulation” (The Journal of Biological Chemistry, 2020)
No constants are given. Whether binding was seen depends on the method and setting. Binding seen in cells or lysates may run through a third protein. These calls come from enrichment with a bait or labelling near it, and not all partners need be listed. Tags and fused reporters may be left off the sequences shown.

Chains of the proteins cited; added tags and fusions are not shown.
UniProt P38532: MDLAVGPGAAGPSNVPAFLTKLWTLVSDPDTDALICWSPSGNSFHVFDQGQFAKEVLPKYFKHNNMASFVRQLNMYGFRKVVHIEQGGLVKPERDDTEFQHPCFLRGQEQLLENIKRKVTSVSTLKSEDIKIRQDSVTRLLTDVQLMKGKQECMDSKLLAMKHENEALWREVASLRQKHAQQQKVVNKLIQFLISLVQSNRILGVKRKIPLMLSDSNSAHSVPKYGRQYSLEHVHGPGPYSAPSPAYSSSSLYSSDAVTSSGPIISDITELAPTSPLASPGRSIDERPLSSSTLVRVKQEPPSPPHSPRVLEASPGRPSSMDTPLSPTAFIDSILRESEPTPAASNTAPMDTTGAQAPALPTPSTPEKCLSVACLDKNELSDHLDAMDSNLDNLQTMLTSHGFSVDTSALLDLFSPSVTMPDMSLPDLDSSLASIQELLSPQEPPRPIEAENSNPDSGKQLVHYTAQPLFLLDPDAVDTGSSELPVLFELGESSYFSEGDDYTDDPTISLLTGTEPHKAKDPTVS

B1: CCCTC-binding factor (endogenous, mouse striatal cells) (protein, UniProt Q61164 1-736)
chain: MEGEAVEAIVEESETFIKGKERKTYQRRREGGQEEDACHLPQNQTDGGEVVQDVNSSVQMVMMEQLDPTLLQMKTEVMEGTVAPEAEAAVDDTQIITLQVVNMEEQPINIGELQLVQVPVPVTVPVATTSVEELQGAYENEVSKEGLAESEPMICHTLPLPEGFQVVKVGANGEVETLEQGELPPQEDSSWQKDPDYQPPAKKTKKTKKSKLRYTEEGKDVDVSVYDFEEEQQEGLLSEVNAEKVVGNMKPPKPTKIKKKGVKKTFQCELCSYTCPRRSNLDRHMKSHTDERPHKCHLCGRAFRTVTLLRNHLNTHTGTRPHKCPDCDMAFVTSGELVRHRRYKHTHEKPFKCSMCDYASVEVSKLKRHIRSHTGERPFQCSLCSYASRDTYKLKRHMRTHSGEKPYECYICHARFTQSGTMKMHILQKHTENVAKFHCPHCDTVIARKSDLGVHLRKQHSYIEQGKKCRYCDAVFHERYALIQHQKSHKNEKRFKCDQCDYACRQERHMIMHKRTHTGEKPYACSHCDKTFRQKQLLDMHFKRYHDPNFVPAAFVCSKCGKTFTRRNTMARHADNCAGPDGVEGENGGETKKSKRGRKRKMRSKKEDSSDSEENAEPDLDDNEEEEEPAVEIEPEPEPQPQPPPPPQPVAPAPPPAKKRRGRPPGRTNQPKQNQPTAIIQVEDQNTGAIENIIVEVKKEPDAEPAEGEEEEAQAATTDAPNGDLTPEMILSMMDR
B2: histone demethylase NO66 (protein, UniProt Q9JJF3 1-603)
chain: MDELPNGNGAALLKRGRGRRRRHPQSQPRGASVLALPLRPRKIRRHRKSAAASRVAALRARALRSEDSDSKVAVASVRGKRKRPAELLEASRSAEPRPVSARPRSASATLPSRVEGWAALSRNLGTAAPPPPGSHADEPGRPRASPLQQVLTELNGIPSSRRRAARLFEWLLAPLPPDHFYRRLWEREAVLVRRQDRSYYEGLFSTADLDSMLRYEDVQFGQHLDAARYVDGRRETLNPPGRALPAAAWSLYRAGCSLRLLCPQAFSPTVWQFLAVLQEQFGSMAGSNVYLTPPDSQGFAPHYDDIEAFVLQLEGRKLWRVYRPRDPSEELALTSSPNFSQEDLGEPVLQTVLEPGDLLYFPRGFIHQAECQDGVHSLHLTLSTYQRNTWGDFLEAVLPLAVQAAIEENVEFRRGLPRDFMDYMGAQHSDSKDPRRTAFMEKVRVLVARLGHFAPVDAVADQRAKDFIHDSLPPVLTDRERALSVHGLPVRWEAGEPVNVGAQLTTETQVHMLQDGVARLVGEGGRLFLYHTVENSRVYHLEEPKCLEIHPQQADAMELLLRSYPEFVRVGDLPCDSVEDQLSLATMLYDKGLLLTKTPLVPS
B3: PSD13 (protein, UniProt Q9WVJ2 1-376)
chain: MKDVPAFLQQSQSSGPGQAAVWHRLEELYTKKLWHQLTLEVLDFVQDPCFAQGDGLIKLYENFISEFEHRVNPLSLVEIILHVVRQMTDPNVALTFLEKTREKVKSSDEAVILCKTAIGALKLNIGDLQATKETIEDVEEMLNNLPGVTSVHSRFYDLSSKYYQTIGNHASYYKDALRFLGCVDIKDLPVSEQQERAFTLGLAGLLGEGVFNFGELLMHPVLESLRDTDRQWLIDTLYAFNSGAVDRFQTLKCAWGQQPDLAANEAQLLRKIQLLCLMEMTFTRPANHRQLTFEEIAKSAKITVNKVELLVMKALSVGLVRGSIDEVDKRVHMTWVQPRVLDLQQIKGMKDRLELWCTDVKSMEMLVEHQAQDILT
B4: PSD12 (protein, UniProt Q9D8W5 1-456)
chain: MADGGSERADGRIVKMEVDYSATVDQRLPECEKLAKEGRLQEVIETLLSLEKQTRTASDMVSTSRILVAVVKMCYEAKEWDLLNENIMLLSKRRSQLKQAVAKMVQQCCTYVEEITDLPVKLRLIDTLRMVTEGKIYVEIERARLTKTLATIKEQNGDVKEAASILQELQVETYGSMEKKERVEFILEQMRLCLAVKDYIRTQIISKKINTKFFQEENTENLKLKYYNLMIQLDQHEGSYLSICKHYRAIYDTPCIQAESDKWQQALKSVVLYVILAPFDNEQSDLVHRISSDKKLEEIPKYKDLLKLFTTMELMRWSTLVEDYGVELRKGSSETPATDVFSSTEEGEKRWKDLKSRVVEHNIRIMAKYYTRITMKRMAQLLDLSVDESEAFLSNLVVNKTIFAKVDRLAGVINFQRPKDPNNLLNDWSQKLNSLMSLVNKTTHLIAKEEMIHNLQ
B5: NFX1 (protein, UniProt B1AY10 1-1114)
chain: MAEAPPVSGTFKFNTDAAEFIPQERKTSGLNCGTQRRLDSSRIGRRNYSSSPPCHLPRHIPYEDISAVHQHSYASGSKPKSPQGFFQSSNKSLKNHGLQNQPWQKARNEKHQNRNKKAQGLSEQTSDTSSLESVARSESGTNPREHSPSESEKEVVIADPRGAKPKKAAQLTYNYGRGPKAKGRLRSEWGNRMSPKSEDENTRPVAISHTDSSDASCRKPVVDPCVCRRNEQRRYPQKRPPWEVEGARPRPGRNPPKQESQRHINAGPKTNMSPIPKDNLRERPTKSACDTGNLAVVSKSSRRVNQEKTAVRRQDPQVLSPFPRGKQNHMLKNVETHTGSLIEQLTTEKYECMVCCELVQVTAPVWSCQSCFHVFHLNCIKKWARSPASHADGQSGWRCPACQNVSAHVPNTYTCFCGKVKNPEWSRNEIPHSCGEVCRKKQPGQDCPHSCNLLCHPGPCPPCPAFTTKTCECGRTRHTVRCGQPVSVHCSNACENILNCGQHHCAELCHGGQCQPCRIILNQVCYCGSTSRDVLCGTDVGKSDGFGDFSCLKICGKDLKCGSHTCSQVCHPQPCQPCPRLPHLVRYCPCGQTPLSQLLEHGSNARKTCMDPVPSCGKVCGKPLACGSSDFIHTCEKLCHEGDCGPCSRTSVISCRCSFRTKELPCTSLKSEDATFMCDKRCNKKRLCGRHKCNEICCVDKEHKCPLICGRKLRCGLHRCEEPCHRGNCQTCWQASFDELTCHCGASVIYPPVPCGTRPPECTQTCARIHECDHPVYHSCHSEEKCPPCTFLTQKWCMGKHELRSNIPCHLVDISCGLPCSAMLPCGMHKCQRLCHKGECLVDEACKQPCTTPRGDCGHPCMAPCHPSLPCPVTACKAKVELQCECGRRKEMVICSEASGTYQRIVAISMASKITDMQLGDSVEISKLITKKEVQQARLQCDEECAALERRKRLAEAFDITDDSDPFNVRSSASKFSDSLKDDARKDLKFVSDVEKEMETLVEAVNKGKNNKKSHCFPPMNRDHRRIIHDLAQVYGLESISYDSEPKRNVVVTAVRGKSVCPPTTLTSVIERETQTRPPPPIPHHRHQADKAPGSSTLQKIVKEAVIDYFDVQD
B6: serine threonine kinase (STK3) (protein, UniProt Q9JI10 1-497)
chain: MEQPPASKSKLKKLSEDSLTKQPEEVFDVLEKLGEGSYGSVFKAIHKESGQVVAIKQVPVESDLQEIIKEISIMQQCDSPYVVKYYGSYFKNTDLWIVMEYCGAGSVSDIIRLRNKTLTEDEIATILKSTLKGLEYLHFMRKIHRDIKAGNILLNTEGHAKLADFGVAGQLTDTMAKRNTVIGTPFWMAPEVIQEIGYNCVADIWSLGITSIEMAEGKPPYADIHPMRAIFMIPTNPPPTFRKPELWSDDFTDFVKKCLVKSPEQRATATQLLQHPFIKNAKPVSILRDLIAEAMEIKAKRHEEQQRELEEEEENSDEDELDSHTMVKTSSESVGTMRATSTMSEGAQTMIEHNSTMLESDLGTMVINSEEEEEEEEEEEEDGTMKRNATSPQVQRPSFMDYFDKQDFKNKSHENCDQSMREPGPMSNSVFPDNWRVPQDGDFDFLKNLSLEELQMRLKALDPMMEREIEELHQRYSAKRQPILDAMDAKKRRQQNF

Molecular target: heat shock transcription factor 1 (endogenous, mouse striatal cells) (mouse (endogenous in STHdh striatal cells)) (UniProt P38532)
Assay: affinity purification with mass spectrometry; endogenous untagged HSF1 immunoprecipitated with polyclonal anti-HSF1 covalently linked to DynaG beads from STHdh Q7 (control), Q7 heat shock (42 °C, 30 min) and Q111 (HD) lysates, no cross-linker; IgG IP as control; hits at least twofold over IgG, p < 0.05, ProteinTeller probability >= 0.8; quantitative LC-MS/MS

binding, binds:
B1
B2
B3
B4
B5
B6
